# Experimental data from PubChem BioAssay AID445 (National Center for Advancing Translational Sciences (NCATS), 2006).
# The list shows a part of the results. These are further read-outs of the screen, such as a control signal, another cell line or another target. No call is given for them. Compounds called inactive in the main read-out are mostly missing here. The note in brackets gives the kind of curve behind each potency; many fits are weak.
# Test: IkB Signaling
# Conditions: ABC-DLBCL IkBa-CBG/CBR dual luciferase ratio (green luciferase fused to IkBa over red control in OCI-Ly3 lymphoma cells), 4 h
# Method in brief: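 Curves were fitted separately to fusion (green), unfused (red) and ratio luminescence, then classed by r2, magnitude and activity. Cells: OCI-Ly3, 4 h compound plus doxycycline at 37C; 10 uM MG-132 defined full response.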
# [1] = measured here: control luc red channel unless noted
# [2] = measured here: IkB-luc green channel
# [3] = measured here: control luc red channel
smiles,measurement,setting,value
O=C(Nc1cccc(C(F)(F)F)c1)c1cc(-c2ccc(Cl)cc2)on1,AC50,[1],"5.01 µM [falling, partial curve]"
CCc1nc2c(cnn2-c2ccc(C)cc2)c(=O)n1-c1ccc(C)cc1,AC50,[1],"39.8 µM [falling, single point]"
Cc1ccc(-c2noc(C(C)NC(=O)c3ccco3)n2)cc1 (stereo not given),AC50,[1],"1.58 µM [rising, partial curve, poor fit]"
COc1ccc(S(=O)(=O)c2c(SC)nn(CC(=O)Nc3ccc(C)c(Cl)c3)c2N)cc1,AC50,[1],"15.8 µM [falling, partial curve]"
COc1ccc(C)cc1S(=O)(=O)Nc1ccc(F)c(Cl)c1,AC50,[1],"20 µM [falling, partial curve]"
CCOC(=O)c1[nH]c2ccccc2c1NC(=O)c1cc(OC)cc(OC)c1,AC50,[1],"15.8 µM [falling, partial curve]"
Cn1ccnc1SCC(=O)Nc1ccc2ccccc2c1,AC50,[1],"7.94 µM [falling, partial curve]"
COc1ccc(S(=O)(=O)N2CCN(CC(=O)Nc3ccc(F)c(F)c3)CC2)cc1,AC50,[1],"15.8 µM [falling, partial curve]"
N#CC1=C(SCc2ccccc2)NC(=O)CC1c1ccco1 (stereo not given),AC50,[1],"5.01 µM [falling, partial curve]"
CCCOc1ccc(Cn2cnc3ccccc32)cc1,AC50,[1],"12.6 µM [falling, partial curve]"
CN=c1scc(C)n1/N=C/c1ccc(O)cc1O,AC50,[1],"10 µM [falling, partial curve]"
Cc1ccc(CN(C(=O)c2ccc(F)cc2)c2ccccn2)o1,AC50,[1],"7.94 µM [falling, single point]"
Cc1ccc(CNc2nc3c(c(=O)n(C)c(=O)n3C)n2Cc2ccc(Cl)cc2)cc1,AC50,[1],"39.8 µM [falling, single point]"
CCn1c(=O)n(-c2ccc(F)c(Cl)c2)c(=O)c2sc3ccccc3c21,AC50,[1],"0.631 µM [rising, full curve]"
COc1ccc2c(c1)c(CC(=O)Nc1cccc(F)c1C)c(C)n2C(=O)c1ccc(Cl)cc1,AC50,[1],"5.01 µM [falling, full curve]"
COc1cccc(-n2ccn(CC(=O)Nc3ccccc3F)c(=O)c2=O)c1,AC50,[1],"20 µM [falling, single point]"
Cc1ccc(-c2nc(C#N)c(NCc3cccc4c3OCO4)o2)cc1,AC50,[1],"31.6 µM [rising, partial curve] [measured here: IkB-luc green channel]"
Cc1ccc(CNS(=O)(=O)c2cc(C(=O)Nc3ccc(C(C)C)cc3)ccc2F)cc1,AC50,[1],"25.1 µM [falling, partial curve]"
CCN(CC)c1ccc(NC(=O)c2ccccc2F)cc1,AC50,[1],"12.6 µM [falling, partial curve]"
Cc1c(CNC2CCC(C)CC2)c(C(=O)O)c(C)n1Cc1ccc(Cl)cc1 (stereo not given),AC50,[1],"25.1 µM [falling, single point]"
Cn1cccc1C(C(=O)NC1CCCCC1)N(C(=O)Cc1cccs1)c1ccc2c(c1)OCCO2 (stereo not given),AC50,[1],"20 µM [falling, partial curve, poor fit]"
CCOC(=O)C(CC)Sc1ncnc2c1c(-c1ccccc1)cn2-c1ccc(OC)cc1 (stereo not given),AC50,[1],"0.1 µM [falling, full curve, poor fit]"
O=C(NCCc1ccc(F)cc1)C(=O)NCC(c1cccs1)S(=O)(=O)c1ccc(Cl)cc1 (stereo not given),AC50,[1],"15.8 µM [falling, partial curve]"
O=C(CSc1nnc(-c2ccccc2)c(-c2ccccc2)n1)NCCc1ccccc1,AC50,[1],"31.6 µM [falling, partial curve]"
Cc1ccc(C)c(N(C)C(=O)c2cc3c(s2)-c2ccccc2OC3)c1,AC50,[1],"20 µM [falling, partial curve, poor fit]"
CCn1c(=O)c2cc(C(=O)NCc3ccc(F)cc3Cl)sc2c2ccccc21,AC50,[1],"39.8 µM [rising, single point]"
Cc1cc(C)c(OCC(=O)N(Cc2ccc(N(C)C)cc2)CC2CCCO2)c(C)c1 (stereo not given),AC50,[1],"25.1 µM [falling, partial curve]"
Cc1cc(=O)n(CC(=O)N2CCCc3ccccc32)c2c1c(C)nn2-c1cccc(F)c1,AC50,[1],"20 µM [falling, partial curve]"
COc1ccc(N(Cc2cc(=O)[nH]c3ccccc23)C(=O)c2ccco2)cc1,AC50,[1],"12.6 µM [falling, partial curve]"
CCCc1[nH]nc2c1C(c1ccccc1OC)C(C#N)=C(N)O2 (stereo not given),AC50,[2],"31.6 µM [rising, single point]"
same,AC50,[3],"25.1 µM [falling, partial curve]"
CC(Sc1nnnn1-c1ccccc1)C(=O)Nc1ccc(Cl)cn1 (stereo not given),AC50,[1],"15.8 µM [falling, partial curve]"
COc1cccc(N2C(=O)C(CC(=O)Nc3ccccc3)N(CCc3sccc3C)C2=O)c1 (stereo not given),AC50,[1],"39.8 µM [falling, single point]"
CCc1ccccc1NC(=O)CN1C(=O)C2CCCN2c2ccc(S(=O)(=O)N(CC)CC)cc21 (stereo not given),AC50,[1],"25.1 µM [falling, partial curve]"
Cc1cccc(C)c1NC(=O)Cn1cc(C(=O)c2ccco2)c2ccccc21,AC50,[1],"39.8 µM [falling, single point]"
CCc1nc(Nc2ccc(F)c(Cl)c2)c2c3c(sc2n1)CCCC3,AC50,[1],"25.1 µM [falling, partial curve]"
CC(NC(=O)c1ccco1)C(c1cccs1)N1CCN(c2ccc(F)cc2)CC1 (stereo not given),AC50,[1],"15.8 µM [falling, partial curve]"
Cc1ccc2oc(-c3ccc(Cl)cc3)c(O)c(=O)c2c1,AC50,[2],"3.98 µM [rising, full curve]"
same,AC50,[3],"3.98 µM [rising, full curve]"
Cc1cc(C)n(-c2ccc(C(=O)Nc3ccc(S(=O)(=O)NCc4ccco4)cc3)cc2)n1,AC50,[1],"15.8 µM [falling, partial curve]"
Cc1cc(O)c(C(c2ccccc2)N2CCN(c3ccccc3)CC2)c(=O)n1Cc1ccco1 (stereo not given),AC50,[1],"39.8 µM [falling, single point]"
CCCN(C(=O)Cc1nc(-c2ccc(OC)cc2)no1)c1ccccc1C,AC50,[1],"20 µM [falling, partial curve]"
CCc1cccc(C)c1NC(=O)CCCn1c(C)c2cnn(-c3ccccc3)c(=O)c2c1C,AC50,[1],"0.794 µM [falling, full curve]"
CCOC(=O)c1[nH]c(C)c(CCC(=O)Nc2ccccc2OCC)c1C,AC50,[1],"20 µM [falling, partial curve, poor fit]"
Cn1c(=O)c2c(nc(NCCCCO)n2Cc2ccccc2Cl)n(C)c1=O,AC50,[1],"5.01 µM [rising, single point]"
COc1ccc(C(=O)Nc2nnc(SCc3cc(=O)c4cccc(F)c4[nH]3)s2)cc1,AC50,[1],"31.6 µM [falling, single point]"
Cc1ccc2c(=O)cc(C(=O)Nc3ccc(S(=O)(=O)N4CCCCC4C)cc3)oc2c1C (stereo not given),AC50,[1],"31.6 µM [falling, single point]"
O=C(CSc1nc2ccccc2s1)NC(=O)NCc1ccco1,AC50,[1],"12.6 µM [falling, partial curve]"
CCN(CC)c1ccc(NS(=O)(=O)c2cc(-c3onc(C)c3C)ccc2OC)c(C)c1,AC50,[1],"25.1 µM [falling, partial curve]"
COc1cccc(-c2nnc(SCC(=O)N(C)c3ccccc3)o2)c1,AC50,[1],"0.794 µM [falling, partial curve]"
CCn1c2ccccc2c2cc(CN3CCN(Cc4ccc(Cl)cc4)CC3)ccc21,AC50,[1],"20 µM [falling, partial curve]"
CCOC(=O)c1ccc(NC(=O)CC2C(=O)N(c3cccc(OC)c3)C(=O)N2Cc2cccnc2)cc1 (stereo not given),AC50,[1],"20 µM [falling, partial curve, poor fit]"
COc1cccc(C2CC(=O)Nc3cc(OC)c(OC)c(OC)c32)c1OC(C)C (stereo not given),AC50,[1],"3.98 µM [rising, partial curve]"
COc1cc(CNC(=O)c2sc3ncccc3c2-n2cccc2)cc(OC)c1OC,AC50,[1],"15.8 µM [falling, partial curve]"
COc1ccc(NC(=O)CN2C(=O)C(C)(C)c3ccccc32)cc1Cl,AC50,[1],"39.8 µM [falling, single point]"
CSc1ccc(CCNC(=O)C2=C(C)C(=O)OC23CCCCC3)cc1,AC50,[1],"3.98 µM [falling, partial curve]"
COCCSc1nc2sc3c(c2c(=O)n1-c1ccccc1)CCN(C)C3,AC50,[1],"10 µM [falling, partial curve]"
Cc1cc(C(=O)CSc2nnc(N)s2)c(C)n1CCc1ccc(Cl)cc1,AC50,[1],"6.31 µM [falling, full curve]"
N#Cc1nc(-c2ccc(COc3ccccc3)o2)oc1NCc1cccnc1,AC50,[1],"39.8 µM [falling, single point]"
COC(=O)c1ccc(OCC2c3cc(OC)c(OC)cc3CCN2C(=O)c2ccccc2C)cc1 (stereo not given),AC50,[1],"39.8 µM [falling, single point]"
Cc1nc(N2CCCC2)c2c(C(=O)N3CCN(c4ccc(F)cc4)CC3)c(C)oc2n1,AC50,[1],"5.01 µM [falling, single point]"
Cc1ccc(-c2nnc(Nc3ccc(Br)cc3)c3ccccc23)cc1S(=O)(=O)NCC1CCCO1 (stereo not given),AC50,[1],"3.98 µM [falling, full curve]"
CCc1cccc(CC)c1NC(=O)c1c(C)oc2ccc(O)c(CN3CCN(C)CC3)c12,AC50,[1],"31.6 µM [falling, single point]"
Cc1cccc(N2CCN(C(=O)Cn3ncc4c3-c3cc(C)ccc3OC4)CC2C)c1 (stereo not given),AC50,[1],"25.1 µM [falling, partial curve]"
Cc1nc2cc(C(=O)NCCC3=CCCCC3)ccc2n1-c1ccc(Br)cc1,AC50,[1],"2.51 µM [rising, single point]"

# Three records drawn at random from those above:
smiles,measurement,setting,value
Cc1ccc(-c2noc(C(C)NC(=O)c3ccco3)n2)cc1 (stereo not given),AC50,[1],"1.58 µM [rising, partial curve, poor fit]"
Cc1cc(O)c(C(c2ccccc2)N2CCN(c3ccccc3)CC2)c(=O)n1Cc1ccco1 (stereo not given),AC50,[1],"39.8 µM [falling, single point]"
CC(Sc1nnnn1-c1ccccc1)C(=O)Nc1ccc(Cl)cn1 (stereo not given),AC50,[1],"15.8 µM [falling, partial curve]"
